Publication PMC6488673, “Crystal structure of the Lin28-interacting module of human terminal uridylyltransferase that regulates let-7 expression”

Key:
hLin28A_ZK + hTUT4_mini = test: Tb(III) footprinting; settings: 10 mM Tb(III), hLin28A_ZK- and hTUT4_mini-dependent protection; recombinant protein; label: 5'-32P
[1] = test system: hTUT4_N C306A/C309A + hLin28A C306A,C309A,del579-610; test: EMSA; settings: ternary complex abolished (outcome refers to TUT4 joining Lin28A:RNA); EMSA: 50 mM Tris-HCl pH 8.5, 100 mM NaCl, 10 mM MgCl2, 10 mM beta-mercaptoethanol, 10% glycerol, 10 min, room temperature; Tb(III) footprinting: same salts, 5% glycerol; recombinant protein; label: none in EMSA (ethidium bromide stain)
[2] = test system: hTUT4_N H450A/K452A + hLin28A H450A,K452A,del579-610; test: EMSA; settings: ternary complex reduced; EMSA: 50 mM Tris-HCl pH 8.5, 100 mM NaCl, 10 mM MgCl2, 10 mM beta-mercaptoethanol, 10% glycerol, 10 min, room temperature; Tb(III) footprinting: same salts, 5% glycerol; recombinant protein; label: none in EMSA (ethidium bromide stain)
[3] = test system: hTUT4_N K321A/K324A + hLin28A K321A,K324A,del579-610; test: EMSA; settings: ternary complex abolished (outcome refers to TUT4 joining Lin28A:RNA); EMSA: 50 mM Tris-HCl pH 8.5, 100 mM NaCl, 10 mM MgCl2, 10 mM beta-mercaptoethanol, 10% glycerol, 10 min, room temperature; Tb(III) footprinting: same salts, 5% glycerol; recombinant protein; label: none in EMSA (ethidium bromide stain)
[4] = test system: hTUT4_N K326A/R327A + hLin28A K326A,R327A,del579-610; test: EMSA; settings: ternary complex abolished (outcome refers to TUT4 joining Lin28A:RNA); EMSA: 50 mM Tris-HCl pH 8.5, 100 mM NaCl, 10 mM MgCl2, 10 mM beta-mercaptoethanol, 10% glycerol, 10 min, room temperature; Tb(III) footprinting: same salts, 5% glycerol; recombinant protein; label: none in EMSA (ethidium bromide stain)
[5] = test system: hTUT4_N K329A/K330A + hLin28A K329A,K330A,del579-610; test: EMSA; settings: ternary complex abolished (outcome refers to TUT4 joining Lin28A:RNA); EMSA: 50 mM Tris-HCl pH 8.5, 100 mM NaCl, 10 mM MgCl2, 10 mM beta-mercaptoethanol, 10% glycerol, 10 min, room temperature; Tb(III) footprinting: same salts, 5% glycerol; recombinant protein; label: none in EMSA (ethidium bromide stain)
[6] = test system: hTUT4_N R669A/R670A + hLin28A R669A,R670A,del579-610; test: EMSA; settings: ternary complex reduced; EMSA: 50 mM Tris-HCl pH 8.5, 100 mM NaCl, 10 mM MgCl2, 10 mM beta-mercaptoethanol, 10% glycerol, 10 min, room temperature; Tb(III) footprinting: same salts, 5% glycerol; recombinant protein; label: none in EMSA (ethidium bromide stain)

Sequence	binding result (hLin28A_ZK + hTUT4_mini)	binding result [1]	binding result [2]	binding result [3]	binding result [4]	binding result [5]	binding result [6]
UGAGGUAGUAGGUUGUAUAGUUUUAGGGUCACACCCACCACUGGGAGAUAACUAUACAAUCUACUGUCUUUC [5'-[32P] pre-let-7a-1]	binds	–	–	–	–	–	–
UGAGGUAGUAGGUUGUAUAGUUUUAGGGUCACACCCACCACUGGGAGAUAACUAUACAAUCUACUGUCUUUC [pre-let-7a-1]	–	no binding	binds more weakly	no binding	no binding	no binding	binds more weakly

For some of these results: A negative result means that nothing was seen under these conditions. For some of these results: A weaker result is weaker than the reference pair of the same experiment. For some of these results: Construct, isoform or probe ends are uncertain for at least one entry. For some of these results: At least one verdict rests on a figure or table, not on a statement of the authors.
